Results: patent US20110319360A1, “Method of including apoptosis/Cell death in leukemia cell using a purine nucleoside analogue” (U.S. Department of Veterans Affairs, priority 2010, published 2011)
For at least one compound, name, drawing or mass did not settle the structure.

Experiments:
caspases 3 and 7 = assay: Caspase-Glo 3/7 assay in CLL cells; format: cell-based, human; details: 50, 500, or 5,000 nM, 48 hours, n=30
CLL cells = assay: [3H]-thymidine proliferation assay, CLL cells stimulated with DSP30/IL-2; format: cell-based, human; details: incubation two hours prior to stimulation with IL-2 and DSP30, 96 hours

Nc1nc(Cl)c2ncn(CCCCCB(O)O)c2n1 [LMP-420, 2-amino-6-chloro-9-[5(dihydroxyboryl)-pentyl] purine]
caspases 3 and 7 activation (caspases 3 and 7): Statistically significant caspase activation | proliferation of stimulated CLL cells (CLL cells): suppressed proliferation in a dose-dependent manner
